The list shows a part of the results.
Legend:
Test in all cases: glycan array binding signal (z-score within array); higher = stronger binding
Conditions in all cases: glycan notation: IUPAC condensed, linker removed
Gal(a1-3)GalNAc = biological target: Gal(a1-3)GalNAc
Summary of the method: (§1)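 Columns mapping to the same glycan were averaged after glycan names were converted to IUPAC-condensed notation. The data come from 3228 arrays in the Consortium for Functional Glycomics database, limited to those with an available protein sequence. Binding is reported as a within-array Z-score averaged across arrays of one protein sequence and across linkers.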

[1] = biological target: Gal(a1-3)[Gal(a1-4)]Gal(b1-4)GlcNAc
Summary of the method: as §1

Gal(a1-4)Gal(b1-4)Glc = biological target: Gal(a1-4)Gal(b1-4)Glc
Summary of the method: as §1

Gal(a1-4)Gal(b1-4)GlcNAc = biological target: Gal(a1-4)Gal(b1-4)GlcNAc
Summary of the method: as §1

[2] = biological target: Gal(a1-4)Gal(b1-4)GlcNAc(b1-3)Gal(b1-4)Glc
Summary of the method: as §1

Gal(a1-4)GlcNAc = biological target: Gal(a1-4)GlcNAc
Summary of the method: as §1

Gal(a1-6)Glc = biological target: Gal(a1-6)Glc
Summary of the method: as §1

Gal(b1-2)Gal = biological target: Gal(b1-2)Gal
Summary of the method: as §1

Gal(b1-3)Gal = biological target: Gal(b1-3)Gal
Summary of the method: as §1

Gal(b1-3)Gal(b1-4)GlcNAc = biological target: Gal(b1-3)Gal(b1-4)GlcNAc
Summary of the method: as §1

[3] = biological target: Gal(b1-3)Gal(b1-4)GlcNAc(b1-2)Man(a1-3)[Gal(b1-3)Gal(b1-4)GlcNAc(b1-2)Man(a1-6)]Man(b1-4)GlcNAc(b1-4)GlcNAc
Summary of the method: as §1

Gal(b1-3)GalNAc = biological target: Gal(b1-3)GalNAc
Summary of the method: as §1

[4] = biological target: Gal(b1-3)GalNAc(a1-3)[Fuc(a1-2)]Gal(b1-4)Glc
Summary of the method: as §1

[5] = biological target: Gal(b1-3)GalNAc(a1-3)[Fuc(a1-2)]Gal(b1-4)GlcNAc
Summary of the method: as §1

[6] = biological target: Gal(b1-3)GalNAc(b1-3)Gal(a1-4)Gal(b1-4)Glc
Summary of the method: as §1

[7] = biological target: Gal(b1-3)GalNAc(b1-4)Gal(b1-4)Glc
Summary of the method: as §1

[8] = biological target: Gal(b1-3)GalNAc(b1-4)[Neu5Ac(a2-3)]Gal(b1-4)Glc
Summary of the method: as §1

Gal(b1-3)GlcNAc = biological target: Gal(b1-3)GlcNAc
Summary of the method: as §1

[9] = biological target: Gal(b1-3)GlcNAc(b1-2)Man(a1-3)[Gal(b1-3)GlcNAc(b1-2)Man(a1-6)]Man(b1-4)GlcNAc(b1-4)GlcNAc
Summary of the method: as §1

[10] = biological target: Gal(b1-3)GlcNAc(b1-2)Man(a1-3)[Gal(b1-3)GlcNAc(b1-2)Man(a1-6)]Man(b1-4)GlcNAc(b1-4)[Fuc(a1-6)]GlcNAc
Summary of the method: as §1

[11] = biological target: Gal(b1-3)GlcNAc(b1-3)Gal(b1-3)GlcNAc
Summary of the method: as §1

[12] = biological target: Gal(b1-3)GlcNAc(b1-3)Gal(b1-4)Glc
Summary of the method: as §1

[13] = biological target: Gal(b1-3)GlcNAc(b1-3)Gal(b1-4)GlcNAc
Summary of the method: as §1

[14] = biological target: Gal(b1-3)[Fuc(a1-4)]GlcNAc
Summary of the method: as §1

[15] = biological target: Gal(b1-3)[Fuc(a1-4)]GlcNAc(b1-2)Man(a1-3)[Gal(b1-3)[Fuc(a1-4)]GlcNAc(b1-2)Man(a1-6)]Man(b1-4)GlcNAc(b1-4)GlcNAc
Summary of the method: as §1

[16] = biological target: Gal(b1-3)[Fuc(a1-4)]GlcNAc(b1-2)Man(a1-3)[Gal(b1-3)[Fuc(a1-4)]GlcNAc(b1-2)Man(a1-6)]Man(b1-4)GlcNAc(b1-4)[Fuc(a1-6)]GlcNAc
Summary of the method: as §1

[17] = biological target: Gal(b1-3)[Fuc(a1-4)]GlcNAc(b1-3)Gal(b1-3)[Fuc(a1-4)]GlcNAc
Summary of the method: as §1

[18] = biological target: Gal(b1-3)[Fuc(a1-4)]GlcNAc(b1-3)Gal(b1-4)GlcNAc
Summary of the method: as §1

[19] = biological target: Gal(b1-3)[Fuc(a1-4)]GlcNAc(b1-3)Gal(b1-4)[Fuc(a1-3)]GlcNAc
Summary of the method: as §1

[20] = biological target: Gal(b1-3)[GlcNAc(b1-6)]GalNAc
Summary of the method: as §1

[21] = biological target: Gal(b1-3)[Neu5Ac(a2-6)]GalNAc
Summary of the method: as §1

[22] = biological target: Gal(b1-3)[Neu5Ac(a2-6)]GlcNAc(b1-6)Gal(b1-4)Glc
Summary of the method: as §1

[23] = biological target: Gal(b1-3)[Neu5Ac(b2-6)]GalNAc
Summary of the method: as §1

[24] = biological target: Gal(b1-4)GalNAc(a1-3)[Fuc(a1-2)]Gal(b1-4)GlcNAc
Summary of the method: as §1

[25] = biological target: Gal(b1-4)GalNAc(b1-3)[Fuc(a1-2)]Gal(b1-4)GlcNAc
Summary of the method: as §1

Gal(b1-4)Glc = biological target: Gal(b1-4)Glc
Summary of the method: as §1

Gal(b1-4)Glc6S = biological target: Gal(b1-4)Glc6S
Summary of the method: as §1

Gal(b1-4)GlcNAc = biological target: Gal(b1-4)GlcNAc
Summary of the method: as §1

B1: HHL-2 (Homo sapiens), P07307 (protein)
chain: MAKDFQDIQQLSSEENDHPFHQGEGPGTRRLNPRRGNPFLKGPPPAQPLAQRLCSMVCFSLLALSFNILLLVVICVTGSQSEGHRGAQLQAELRSLKEAFSNFSSSTLTEVQAISTHGGSVGDKITSLGAKLEKQQQDLKADHDALLFHLKHFPVDLRFVACQMELLHSNGSQRTCCPVNWVEHQGSCYWFSHSGKAWAEAEKYCQLENAHLVVINSWEEQKFIVQHTNPFNTWIGLTDSDGSWKWVDGTDYRHNYKNWAVTQPDNWHGHELGGSEDCVEVQPDGRWNDDFCLQVYRWVCEKRRNATGEVA
glycan array binding signal (z-score) (Gal(a1-3)GalNAc): 0.409
glycan array binding signal (z-score) [1]: 1.67
glycan array binding signal (z-score) (Gal(a1-4)Gal(b1-4)Glc): 2.09
glycan array binding signal (z-score) (Gal(a1-4)Gal(b1-4)GlcNAc): -0.422
glycan array binding signal (z-score) [2]: -0.794
glycan array binding signal (z-score) (Gal(a1-4)GlcNAc): -0.168
glycan array binding signal (z-score) (Gal(a1-6)Glc): 0.65
glycan array binding signal (z-score) (Gal(b1-2)Gal): -0.13
glycan array binding signal (z-score) (Gal(b1-3)Gal): 0.298
glycan array binding signal (z-score) (Gal(b1-3)Gal(b1-4)GlcNAc): -0.187
glycan array binding signal (z-score) [3]: -0.335
glycan array binding signal (z-score) (Gal(b1-3)GalNAc): -0.603
glycan array binding signal (z-score) [4]: 1.96
glycan array binding signal (z-score) [5]: -0.536
glycan array binding signal (z-score) [6]: -0.382
glycan array binding signal (z-score) [7]: -0.88
glycan array binding signal (z-score) [8]: -0.892
glycan array binding signal (z-score) (Gal(b1-3)GlcNAc): -0.575
glycan array binding signal (z-score) [9]: -0.379
glycan array binding signal (z-score) [10]: 0.113
glycan array binding signal (z-score) [11]: -0.113
glycan array binding signal (z-score) [12]: -0.384
glycan array binding signal (z-score) [13]: -0.469
glycan array binding signal (z-score) [14]: -0.358
glycan array binding signal (z-score) [15]: 0.043
glycan array binding signal (z-score) [16]: -0.499
glycan array binding signal (z-score) [17]: -0.658
glycan array binding signal (z-score) [18]: -0.72
glycan array binding signal (z-score) [19]: -0.813
glycan array binding signal (z-score) [20]: -0.467
glycan array binding signal (z-score) [21]: 0.874
glycan array binding signal (z-score) [22]: -0.297
glycan array binding signal (z-score) [23]: 0.004
glycan array binding signal (z-score) [24]: -0.872
glycan array binding signal (z-score) [25]: -0.033
glycan array binding signal (z-score) (Gal(b1-4)Glc): -0.327
glycan array binding signal (z-score) (Gal(b1-4)Glc6S): -0.52
glycan array binding signal (z-score) (Gal(b1-4)GlcNAc): -0.573

Reference: the supplement of paper PMC8728848
